# From the supplement of paper PMC10727501
# The list shows a part of the results. Repeats in this data set agree poorly, so a single value says little.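 Free-swimming zebrafish larvae were scored for O-bend response probability to dark flashes (naive: first five; training: remaining flashes of four 60-flash blocks; test: later 60-flash block) and for turning toward alternating leftward/rightward LED motion (OMR). Six treated larvae were compared with sixty 0.1% DMSO controls; |SSMD|≥2 defined a hit.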
# System: Danio rerio larvae (5 dpf, TLF)
# Test: OMR-Perf (SSMD vs DMSO vehicle); higher = higher than vehicle (e.g. higher dark-flash O-bend response probability, or better optomotor performance)
# Conditions: 10 µM; pre-incubation: 30-90 min
row,SMILES,OMR-Perf
1,NC(Cc1c[nH]c2ccc(O)cc12)C(=O)O (stereo not given) [5-hydroxytryptophan (5-HTP)],0.19
2,CN(C)CCC(c1ccccc1)c1ccccn1.O=C(O)/C=C\C(=O)O (stereo not given) [Pheniramine Maleate],-0.343
3,CCCc1nn(C)c2c(=O)[nH]c(-c3cc(S(=O)(=O)N4CCN(C)CC4)ccc3OCC)nc12.O=C(O)CC(O)(CC(=O)O)C(=O)O [Sildenafil Citrate],0.251
4,COc1c(O)cc2c(c1O)[C@@H]1O[C@H](CO)[C@@H](O)[C@H](O)[C@H]1OC2=O [Bergenin],0.0721
5,CC[C@H](c1ccc(O)cc1)[C@@H](CC)c1ccc(O)cc1 [Hexestrol],0.879
6,O=C(NC1CCNCC1)c1n[nH]cc1NC(=O)c1c(Cl)cccc1Cl,0.407
7,O=C(O)Cn1nnc(-c2cc(N3CCC(Oc4cc(F)ccc4Br)CC3)no2)n1,-0.714
8,CCOC(=O)c1ccc(N2NC(=O)/C(=C/c3ccc([N+](=O)[O-])o3)C2=O)cc1,-0.0485
9,"Cn1c(=O)n(-c2ccc(C(C)(C)C#N)cc2)c2c3cc(-c4cnc5ccccc5c4)ccc3ncc21 [BEZ235 (NVP-BEZ235, Dactolisib)]",0.39
10,CNCCCC12CCC(c3ccccc31)c1ccccc12.Cl [Maprotiline HCl],-0.525
11,CC(=O)O[C@@]1(C(C)=O)CC[C@H]2[C@@H]3C=C(Cl)C4=CC(=O)[C@@H]5C[C@H]5[C@]4(C)[C@@H]3CC[C@@]21C [Cyproterone Acetate],-0.967
12,CN1CCCCC1CCN1c2ccccc2Sc2ccc(S(C)=O)cc21.O=S(=O)(O)c1ccccc1 (stereo not given) [Mesoridazine Besylate],-0.587
13,COS(=O)(=O)[O-].C[N+]1(C)CCC(=C(c2ccccc2)c2ccccc2)CC1 [Diphemanil Methylsulfate],-0.178
14,CCOc1nc2cccc(C(=O)OC(C)OC(=O)OC3CCCCC3)c2n1Cc1ccc(-c2ccccc2-c2nnn[nH]2)cc1 (stereo not given) [Candesartan Cilexetil],0.482
15,O=C(/C=C/c1ccc(O)cc1)c1ccc(O)cc1O [Isoliquiritigenin],-0.374
16,CC1=C(C(=O)O)N2C(=O)[C@@H](NC(=O)[C@H](N)c3ccccc3)[C@@H]2SC1 [Cephalexin],1.56
17,CNC[C@H](O)c1ccc(O)c(O)c1.Cl [Epinephrine HCl],-0.0773
18,O=C(Nc1c[nH]nc1-c1nc2cc(CN3CCOCC3)ccc2[nH]1)NC1CC1,-0.348
19,Cc1cc2nc3c(=O)[nH]c(=O)nc-3n(C[C@H](O)[C@H](O)[C@H](O)CO)c2cc1C [Riboflavin (Vitamin B2)],0.131
20,N#CC[C@@H](C1CCCC1)n1cc(-c2ncnc3[nH]ccc23)cn1,-0.189

row,SMILES,OMR-Perf
1,COc1ccc2c(c1)c(C1=C(c3c[nH]c4ccccc34)C(=O)NC1=O)cn2CCCN(C)C,-0.117
2,NC(=O)Nc1cc(-c2cccc(F)c2)sc1C(=O)N[C@H]1CCCNC1,0.16
3,Cn1cc(-c2cnn3c(N)c(Br)c([C@@H]4CCCNC4)nc23)cn1,0.078
4,COc1cc2c(cc1NS(=O)(=O)c1ccc(Br)cc1C)n(C)c(=O)n2C,0.186
5,CCCc1nc(C(C)(C)O)c(C(=O)OCc2oc(=O)oc2C)n1Cc1ccc(-c2ccccc2-c2nn[nH]n2)cc1 [Olmesartan Medoxomil],0.051
6,NS(=O)(=O)c1ccc(NC(=O)Nc2ccc(F)cc2)cc1,0.461
7,O=C1Nc2ccccc2/C1=C1/Nc2ccccc2C1=O [Indirubin],-0.0743
8,Cc1cc(C(C)Nc2ccccc2)c2nc(N3CCOCC3)cc(=O)n2c1 (stereo not given),0.115
9,Cl.Nc1c(Br)cc(Br)cc1CN[C@H]1CC[C@H](O)CC1 [Ambroxol HCl],-0.164
10,CN(C)C(=O)c1ccc(S(=O)(=O)c2ccc(NC(=O)C(C)(O)C(F)(F)F)c(Cl)c2)cc1 (stereo not given),-0.15
11,CCCCCCCCCCCCCCCCO [1-Hexadecanol],-0.401
12,O=C1C[C@@H](c2ccc(O)cc2)Oc2cc(O)cc(O)c21 [Naringenin],0.423
13,Cc1ccc(C)c(OCCCC(C)(C)C(=O)O)c1 [Gemfibrozil],0.186
14,Nc1ccc(C(=O)Nc2cccc(-c3nc(N4CCOCC4)c4oc5ncccc5c4n3)c2)cn1,-0.613
15,CN(C)CCOC(C)(c1ccccc1)c1ccccn1.O=C(O)CCC(=O)O (stereo not given) [Doxylamine Succinate],-0.27
16,NC1CCN(c2c(F)cc3c(=O)c(C(=O)O)cn(C4CC4)c3c2Cl)C1 (stereo not given),0.205
17,NCC(=O)Nc1ccc(-n2nc(C(F)(F)F)cc2-c2ccc3c(ccc4ccccc43)c2)cc1,0.901
18,C=C1C(=O)[C@]23C(CC[C@@H]1[C@H]2O)[C@]12CO[C@]3(O)[C@H](O)[C@@H]1C(C)(C)CC[C@@H]2O (stereo not given in full) [Oridonin],0.188
19,Nc1nc(N)c2nc(-c3cccc(O)c3)cnc2n1,0.172
20,O=C(NCc1ccccc1)c1csc(Nc2ccncn2)n1 [Thiazovivin],-0.445

# Entries shown so far with a cyano group:
row,SMILES,OMR-Perf
9,"Cn1c(=O)n(-c2ccc(C(C)(C)C#N)cc2)c2c3cc(-c4cnc5ccccc5c4)ccc3ncc21 [BEZ235 (NVP-BEZ235, Dactolisib)]",0.39
20,N#CC[C@@H](C1CCCC1)n1cc(-c2ncnc3[nH]ccc23)cn1,-0.189
